# Measurements published in paper PMC6770826, “HDX and Native Mass Spectrometry Reveals the Different Structural Basis for Interaction of the Staphylococcal Pathogenicity Island Repressor Stl with Dimeric and Trimeric Phage dUTPases” (Biomolecules, 2019).
# What was measured:
# [1] = target: T1, φNM1 phage dUTPase (Staphylococcus aureus phage φNM1) (UniProt A0EWK2); experiment: HDX-MS; labelling at 20 °C for 1, 10 and 100 min in 20 mM HEPES, 300 mM NaCl, 5 mM MgCl2 in D2O, pD 7.1; proteins alone or pre-mixed at about equimolar concentrations; pepsin digestion; both purified
# T1 sequence: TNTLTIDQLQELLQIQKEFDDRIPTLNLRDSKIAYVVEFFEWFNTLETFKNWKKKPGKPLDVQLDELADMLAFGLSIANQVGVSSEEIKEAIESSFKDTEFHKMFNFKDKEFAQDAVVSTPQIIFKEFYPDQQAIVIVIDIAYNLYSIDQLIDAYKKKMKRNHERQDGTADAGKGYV
# [2] = target: T1, φNM1 phage dUTPase (Staphylococcus aureus phage φNM1); experiment: native gel or EMSA; 12% polyacrylamide, Tris-HCl pH 8.7, cooled on ice; proteins alone or premixed at various molar ratios; both purified
substance,measurement,setting,value
Stl repressor protein of S. aureus pathogenicity island SaPIbov1,binding,[1],binds
same,binding,[2],binds

# No constants are given. Whether binding was seen depends on the method and setting. A result given as binding can be weak or reduced; the word gives no strength.
